The record followed here is article PMC7819943, “Rice protein-binding microarrays: a tool to detect cis-acting elements near promoter regions in rice”.

Protein sequences, listed by entry. Tags and fused reporters are not part of them.
UniProt Q0JBA9, entry or part of it: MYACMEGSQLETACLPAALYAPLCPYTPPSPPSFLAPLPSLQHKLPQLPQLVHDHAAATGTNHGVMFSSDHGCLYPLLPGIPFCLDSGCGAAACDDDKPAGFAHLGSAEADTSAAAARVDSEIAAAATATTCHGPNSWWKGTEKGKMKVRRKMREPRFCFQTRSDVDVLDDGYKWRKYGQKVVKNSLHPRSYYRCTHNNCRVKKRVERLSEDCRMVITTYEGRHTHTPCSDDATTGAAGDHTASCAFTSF

The list shows a part of the results.

This assay deals with OsWRKY34 (Oryza sativa, UniProt Q0JBA9 1-250). Kind of assay: protein-binding microarray (RPBM); PBS, 2% BSA, 51.3 ng/ul salmon testes DNA, 50 uM zinc acetate, 200 nM TF, 25 C, 1 h; high values mean tight binding. Conditions: protein: recombinant; tags: N-terminal polyhistidine and DsRed monomer fusion (pET32a); label: CyDye5-dUTP incorporated in the synthesized complementary strand; 3' TTTTT single-stranded linker to array surface; dsDNA, one strand shown. The gist of the method:
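Ni–NTA purification followed expression in E. coli BL21-CodonPlus of transcription factors fused N-terminally to a polyhistidine tag and DsRed. At 200 nM in PBS with 2% BSA, salmon testes DNA and 50 µM zinc acetate, the protein was incubated for 1 h at 25 °C with a custom Agilent array that had been primer-extended with Cy5-dUTP and blocked with 2% BSA. After washing, the array was read on an Axon 4000B scanner. The binding signal is per-feature fluorescence intensity in arbitrary units.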
For “CAGTGTACGAGCTGGTGTGTGTTTCTCTCCGTTTCGTTTCCGGAGTCACCTAGTGCAG”, the binding signal was 11700 fluorescence intensity (a.u.). The result for “CCAGCTTCAAGCCTTCAAACATGGGGTTTGCTACAGTGTACGGAGTCACCTAGTGCAG” reads 8240 fluorescence intensity (a.u.); that for “CTATCTCTGCTTGAACATACCACTACCTCAGTATTCTCTACGGAGTCACCTAGTGCAG”, 8270 fluorescence intensity (a.u.); that for “ATGTGGCTAGAGTTGGGGTTTAGTGTCAGTTGTTAGGGATCGGAGTCACCTAGTGCAG”, 11200 fluorescence intensity (a.u.). Then “CCCAACGCTAATCGTTACCACGCGCACACACGCTTCACTTCGGAGTCACCTAGTGCAG”, with 8340 fluorescence intensity (a.u.); and “ACCCCATCTACCAGCAGCTTCCTCTCTATGACTATATATACGGAGTCACCTAGTGCAG”, with 12800 fluorescence intensity (a.u.).

As for “GGGAGAGATCTGTTGTTGTTGTGAAACCCCTCTATCCTTCCGGAGTCACCTAGTGCAG”, the binding signal is 9460 fluorescence intensity (a.u.). Then “CTTTACATCTATCAGGTTTGTCAGCCACCATGTTAACACCCGGAGTCACCTAGTGCAG”, with 11000 fluorescence intensity (a.u.). Then “CAAACAAAATGGGTTTCTTCTTACGGTTGTGGGCTTTTTCCGGAGTCACCTAGTGCAG”, with 17400 fluorescence intensity (a.u.); and “CGTCGTCGTCGTCGTCGTCACAGGCAAGAAGAGGAGAAGGCGGAGTCACCTAGTGCAG”, with 8240 fluorescence intensity (a.u.). The result for “TCTCTCTCTCCTCTTCAATTCTCTCTCTACCTCCGCTGCGCGGAGTCACCTAGTGCAG” reads 11300 fluorescence intensity (a.u.); that for “ATGACCTATCTCGTGTTATGCGCTGGGGTGGAGGTCTGTCCGGAGTCACCTAGTGCAG”, 9620 fluorescence intensity (a.u.); that for “CTTAGAGCTAACACGCTCACCTTTTATACTTGCTCTAACCCGGAGTCACCTAGTGCAG”, 10600 fluorescence intensity (a.u.).

Take “CCTTAGTCAGCCTCTGCTTCTGCTCCGTGCTCGCCGGCGCCGGAGTCACCTAGTGCAG”: the binding signal was 12600 fluorescence intensity (a.u.). With “TTTAAGTTGCATAGTCTGGTCATTTTATGCACTGAATGGTCGGAGTCACCTAGTGCAG”, the binding signal was 8940 fluorescence intensity (a.u.). For the sequence “TCTGTACTGCTTTGGGATTATATTTACACTGGTTTTACAACGGAGTCACCTAGTGCAG”, the binding signal is 8630 fluorescence intensity (a.u.). The result for “CCCAAAGACTTGGCACATATGCATGCAACCAACTAATTTTCGGAGTCACCTAGTGCAG” reads 8270 fluorescence intensity (a.u.); that for “GGGATGCTTCTTTTGTGTGATATCTTTACATGTCGGTCTACGGAGTCACCTAGTGCAG”, 9840 fluorescence intensity (a.u.); that for “CACATGTTCTCTCTCTCTCTCTCTCTCTCTCTCTCTCTCTCGGAGTCACCTAGTGCAG”, 10100 fluorescence intensity (a.u.). With “AACTTAAATCACAACTCAGTTTCAGTACTTGAATTTCAGACGGAGTCACCTAGTGCAG”, the binding signal is 8300 fluorescence intensity (a.u.). The result for “GTAACACTGTGGCTGCTTTTCTCCTGCTTACCTTTTCTTTCGGAGTCACCTAGTGCAG” reads 9690 fluorescence intensity (a.u.); that for “CAGGGAGTGGGGTCTTTTTGGTAGGATGATTGAATCCAACCGGAGTCACCTAGTGCAG”, 9000 fluorescence intensity (a.u.); that for “CGGACAGCCAGCCACCACCGTTGCTGGCTACTCACTCTCACGGAGTCACCTAGTGCAG”, 8430 fluorescence intensity (a.u.).

Take “GCTCCAATCTCTAACCTGGGAGGGTTGCCCTTTATTACCTCGGAGTCACCTAGTGCAG”: the binding signal is 8090 fluorescence intensity (a.u.).

In the case of “TGTGTCTGTTTTGACTGCTCGTGGTTGGTTTCTTGTTTAGCGGAGTCACCTAGTGCAG”, the binding signal is 9170 fluorescence intensity (a.u.). The result for “TCTCTAGACCTGTAAGCCCTGAACTCACCTCATCCATTTTCGGAGTCACCTAGTGCAG” reads 9240 fluorescence intensity (a.u.). The result for “GTCTGTGATAATTTTGTTCTCTTCTTGTTGGGGTCTTGGGCGGAGTCACCTAGTGCAG” reads 10200 fluorescence intensity (a.u.); that for “TGGAGCGAATTTCAGATTGGGTTGTTTGCGGGGCTAAGTTCGGAGTCACCTAGTGCAG”, 11800 fluorescence intensity (a.u.); that for “ACAACGAAGCCTCTCTGGTCAACTCTCACCCGCACGTACGCGGAGTCACCTAGTGCAG”, 11700 fluorescence intensity (a.u.).

Regarding “TTCTCTTCTGCGCTCTCGGCTACTTGTACTCCCGAGATGCCGGAGTCACCTAGTGCAG”, the binding signal is 9170 fluorescence intensity (a.u.). Consider “ATGTGTGACTTGTCTTTTTAATTTTTTTTTTAATTTTTTTCGGAGTCACCTAGTGCAG”, for which the binding signal was 9610 fluorescence intensity (a.u.).

With “CCCAACCACCCCGACCGCGTTCCGGCGGTTGCTGCAACCTCGGAGTCACCTAGTGCAG”, the binding signal is 8980 fluorescence intensity (a.u.). With “CACCTACCGGGACAGCGCCGACTTCAACCGGACCGACGACCGGAGTCACCTAGTGCAG”, the binding signal was 8410 fluorescence intensity (a.u.). Then “GCCGCGCGCGCCGTCGTCCAGCCGCTGTCACGCCGCGCGGCGGAGTCACCTAGTGCAG”, with 9000 fluorescence intensity (a.u.); and “GTATTGCTAGTGGGCGGGTGATCGCTTCCCTCTCCTTCCTCGGAGTCACCTAGTGCAG”, with 9610 fluorescence intensity (a.u.). Then “TCATGTGCTTCTTCATCTTCAGCTTTGCATGTAGCCTACTCGGAGTCACCTAGTGCAG”, with 10100 fluorescence intensity (a.u.); and “ACTAATTTCTTGCTAATTTTTTTCCTTTGCTCCTATCTCTCGGAGTCACCTAGTGCAG”, with 10400 fluorescence intensity (a.u.); and “CCGGCACACTGGTTTCCCTTGCATTAGATGATCACATTCACGGAGTCACCTAGTGCAG”, with 8270 fluorescence intensity (a.u.). Then “GCCGCCACCATCTCTCATCGGACCATCGCAGCTCGACTCCCGGAGTCACCTAGTGCAG”, with 10100 fluorescence intensity (a.u.); and “ACGTGGAGGGGTTATTTGCACGCGAATCCGCGTAGATTTCCGGAGTCACCTAGTGCAG”, with 8070 fluorescence intensity (a.u.); and “GATGGTGTGTGGTGTTTCCTTTTTTTTTTCTCTGGAAACGCGGAGTCACCTAGTGCAG”, with 8440 fluorescence intensity (a.u.). For the sequence “CTACTTGCTTCTTTCCTCCTTTCTTCCTCCTCCTCCTACACGGAGTCACCTAGTGCAG”, the binding signal is 9410 fluorescence intensity (a.u.).
